{"sequences": {"note": "The chains behind the UniProt entries cited, without tags or fusion partners.", "UniProt Q0JBA9, entry or part of it": "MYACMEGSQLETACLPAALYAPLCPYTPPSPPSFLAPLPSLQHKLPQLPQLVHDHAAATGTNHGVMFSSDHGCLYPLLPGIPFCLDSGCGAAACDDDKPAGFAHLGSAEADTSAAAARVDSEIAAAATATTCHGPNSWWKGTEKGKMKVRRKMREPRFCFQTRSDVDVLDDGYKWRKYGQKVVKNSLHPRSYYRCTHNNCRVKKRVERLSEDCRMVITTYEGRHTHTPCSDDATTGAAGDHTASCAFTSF"}, "source": "paper PMC7819943", "about": "“Rice protein-binding microarrays: a tool to detect cis-acting elements near promoter regions in rice”", "note": "The list shows a part of the results.", "data": [{"biological_target": "OsWRKY34 (Oryza sativa, UniProt Q0JBA9 1-250)", "assay": "protein-binding microarray (RPBM); PBS, 2% BSA, 51.3 ng/ul salmon testes DNA, 50 uM zinc acetate, 200 nM TF, 25 C, 1 h; high values mean tight binding", "settings": "protein: recombinant; tags: N-terminal polyhistidine and DsRed monomer fusion (pET32a); label: CyDye5-dUTP incorporated in the synthesized complementary strand; 3' TTTTT single-stranded linker to array surface; dsDNA, one strand shown", "how_it_was_run": "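For the binding signal, per-feature fluorescence intensity was read in arbitrary units on an Axon 4000B scanner. Before scanning, a 2% BSA-blocked custom Agilent array made double-stranded with Cy5-dUTP was washed after 1 h at 25 °C with 200 nM protein and 50 µM zinc acetate. The proteins were Ni–NTA-purified transcription factors with N-terminal polyhistidine and DsRed fusions, expressed in E. coli BL21-CodonPlus.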", "values": [{"sequence": "GCCTCACCCCTAAACACCTAAATCCTAATCCATCCATTCCCGGAGTCACCTAGTGCAG", "binding signal": "8540 fluorescence intensity (a.u.)"}, {"sequence": "AGCGCTCTCTCTCTCTCTCTCTCTCTCGCATCGCGCGCAGCGGAGTCACCTAGTGCAG", "binding signal": "9590 fluorescence intensity (a.u.)"}, {"sequence": "CACCATGAAATCATCTTCGCTTATTTAATAGAGGATATCACGGAGTCACCTAGTGCAG", "binding signal": "8450 fluorescence intensity (a.u.)"}, {"sequence": "CGTTCGTAGCTTTTTTCCGTTGTCCCACACTTGAGAGTACCGGAGTCACCTAGTGCAG", "binding signal": "9050 fluorescence intensity (a.u.)"}, {"sequence": "GATTTAGGACATTCAGGGTTGTCGGGTGTGTTGAGCTCGGCGGAGTCACCTAGTGCAG", "binding signal": "9820 fluorescence intensity (a.u.)"}, {"sequence": "ACAGAGTACAGACACTACCATTAAAAAGTCAAAACGGGCCCGGAGTCACCTAGTGCAG", "binding signal": "8670 fluorescence intensity (a.u.)"}, {"sequence": "GATTCACAATGCGGCCTGCCACGCCAAGACTACTCGTGCTCGGAGTCACCTAGTGCAG", "binding signal": "8680 fluorescence intensity (a.u.)"}, {"sequence": "GCCGCCTTACACCCGGCCACCAGCTTGTTCGTCGCCGGCGCGGAGTCACCTAGTGCAG", "binding signal": "8100 fluorescence intensity (a.u.)"}, {"sequence": "GTGCTTACTATCCTCCGCCTGAGTCCCTGCATCGGTCGCGCGGAGTCACCTAGTGCAG", "binding signal": "8130 fluorescence intensity (a.u.)"}, {"sequence": "TTGATTTGTTTTCCTTTTGCATAATAACGCTCTGCTAGCTCGGAGTCACCTAGTGCAG", "binding signal": "9520 fluorescence intensity (a.u.)"}, {"sequence": "CATGCCTTGATTATTGTTTATCCCTTATTCCTTCGTAACCCGGAGTCACCTAGTGCAG", "binding signal": "9800 fluorescence intensity (a.u.)"}, {"sequence": "TCCTCCTGTCTCTGCCTCTGCTCGGCTAGTCTAGTGTACTCGGAGTCACCTAGTGCAG", "binding signal": "8810 fluorescence intensity (a.u.)"}, {"sequence": "CATCCACAAGTTCATCATATCCGTCGTCGTCTTCGTCTTCCGGAGTCACCTAGTGCAG", "binding signal": "8290 fluorescence intensity (a.u.)"}, {"sequence": "CTCGTATCCACTCGTGTCCAACTGTTCTTGTGTCTTTGTTCGGAGTCACCTAGTGCAG", "binding signal": "10100 fluorescence intensity (a.u.)"}, {"sequence": "GTTTCATAATGTAAGATTTTCTAGCATTACCCATATTCATCGGAGTCACCTAGTGCAG", "binding signal": "8160 fluorescence intensity (a.u.)"}, {"sequence": "CCATGGTGTTAATATAATCATTCGTTGACCAGAATTGAGGCGGAGTCACCTAGTGCAG", "binding signal": "16100 fluorescence intensity (a.u.)"}, {"sequence": "GTTCCTTTTTTTTTTTCAAAAAACGTTACATTGAATCTTTCGGAGTCACCTAGTGCAG", "binding signal": "8840 fluorescence intensity (a.u.)"}, {"sequence": "TCTTTTCCTATTACGTGTCTTTTTTATCTCCTATATATACCGGAGTCACCTAGTGCAG", "binding signal": "8230 fluorescence intensity (a.u.)"}, {"sequence": "ACACTGATTTTTGGTCGTTCGTTTTATTTAAATCATTTTTCGGAGTCACCTAGTGCAG", "binding signal": "14100 fluorescence intensity (a.u.)"}, {"sequence": "TCCCTGGAAGAAATCTTGTGCCCATTTCGTCGTGCTTTGTCGGAGTCACCTAGTGCAG", "binding signal": "8430 fluorescence intensity (a.u.)"}, {"sequence": "CTCACCTACCCAATTGTCTCCTCCTCCTCAAATTTAGGTTCGGAGTCACCTAGTGCAG", "binding signal": "8470 fluorescence intensity (a.u.)"}, {"sequence": "AGGAGTCCGATTGTCTCAAGTTAGCATGCGATTTTTTTTACGGAGTCACCTAGTGCAG", "binding signal": "8280 fluorescence intensity (a.u.)"}, {"sequence": "AAATATTTTCCATTGTTTTGCTTATTTGGTTTGACCCAAACGGAGTCACCTAGTGCAG", "binding signal": "13100 fluorescence intensity (a.u.)"}, {"sequence": "GACCTTATGGACCTTATGGGTGATGATCTTATCTGATTCGCGGAGTCACCTAGTGCAG", "binding signal": "9210 fluorescence intensity (a.u.)"}, {"sequence": "TCTGTGCATCATTTTTTCCCTTTTTTTTTGTGGCTTTCCCCGGAGTCACCTAGTGCAG", "binding signal": "8430 fluorescence intensity (a.u.)"}, {"sequence": "GTGTTAGGTGCTGAGATTTTTGTACTTGCTTTATTATTTTCGGAGTCACCTAGTGCAG", "binding signal": "8860 fluorescence intensity (a.u.)"}, {"sequence": "TGTCTGTGTTTGTCCTGACTGATGATGCATTGACTCGTTGCGGAGTCACCTAGTGCAG", "binding signal": "9770 fluorescence intensity (a.u.)"}, {"sequence": "CACACGACACGCACCAACAGACCCCTTTCCGGCGCGGGCCCGGAGTCACCTAGTGCAG", "binding signal": "8400 fluorescence intensity (a.u.)"}, {"sequence": "TGGGTATTTCTCTTGATGCATGTTATTTCAGTTATTGATTCGGAGTCACCTAGTGCAG", "binding signal": "10900 fluorescence intensity (a.u.)"}, {"sequence": "CTCCCTCATCTTCTTTATCTTTTCTGCGCTGGGAGACTTTCGGAGTCACCTAGTGCAG", "binding signal": "10400 fluorescence intensity (a.u.)"}, {"sequence": "TCGGACATATTCTTTTTTTTTCCCGATTTTTCTTTTACCGCGGAGTCACCTAGTGCAG", "binding signal": "9320 fluorescence intensity (a.u.)"}, {"sequence": "GTTTCGTCTTCGAGAGCTCGACTTCACTCGCACCGTGTCCCGGAGTCACCTAGTGCAG", "binding signal": "8950 fluorescence intensity (a.u.)"}, {"sequence": "ACCACCCCACAGGCCCACACCCACACTCTCCCAGTCCCGCCGGAGTCACCTAGTGCAG", "binding signal": "11200 fluorescence intensity (a.u.)"}, {"sequence": "GCGCGCTGACCCGCTTGTACTCCTCCACCATGTTCCTCACCGGAGTCACCTAGTGCAG", "binding signal": "8270 fluorescence intensity (a.u.)"}, {"sequence": "ATGCCTACACACCACCACGCATGCACACCATCACACACATCGGAGTCACCTAGTGCAG", "binding signal": "11600 fluorescence intensity (a.u.)"}, {"sequence": "CTCGTCGCGGTCGCAGGGGCGGGGCAGCGTTGCCGCGTTCCGGAGTCACCTAGTGCAG", "binding signal": "10800 fluorescence intensity (a.u.)"}, {"sequence": "TATCCAATCCATCCGATCCGTCCGTCCACATTCAAATCTCCGGAGTCACCTAGTGCAG", "binding signal": "10400 fluorescence intensity (a.u.)"}, {"sequence": "ACCGGAGAAATCGTCGTCTCTCTCTGTCACCGGGGCCCGCCGGAGTCACCTAGTGCAG", "binding signal": "9360 fluorescence intensity (a.u.)"}, {"sequence": "CCACTTTTGCAGATTGCAGGGCGCGCAGTACTGCCGACAGCGGAGTCACCTAGTGCAG", "binding signal": "18900 fluorescence intensity (a.u.)"}, {"sequence": "TTGACTCCTCGCGCCTCACCTCGCCTCGCCTCCATTACATCGGAGTCACCTAGTGCAG", "binding signal": "10900 fluorescence intensity (a.u.)"}, {"sequence": "CTCCTTGCAAGCATTTCTTGGGTTCTCTTTTCTTTTCTTTCGGAGTCACCTAGTGCAG", "binding signal": "12800 fluorescence intensity (a.u.)"}, {"sequence": "GCCACCCGCCAGTCGCCGCGCACACGCATCGCCGTTCTTTCGGAGTCACCTAGTGCAG", "binding signal": "10800 fluorescence intensity (a.u.)"}]}]}
